Some of the results follow. Further columns of the screen follow, without active or inactive calls. Compounds called inactive in the main read-out are mostly missing here. The note in brackets gives the kind of curve behind each potency; many fits are weak.

The text below walks through data of PubChem BioAssay AID2685 (National Center for Advancing Translational Sciences (NCATS), 2010).

The test in a line: qHTS Assay for Lipid Storage Modulators in Drosophila S3 Cells.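 On cell number change: cells counted by Cell Tracker Red CMTPX staining in the red channel.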 The settings on record: BODIPY lipid droplet fluorescence, 18-24 h; for cell number change: measured here: cell count max response, cells fed with added oleic acid. An outline of the steps: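 Laser-scanning cytometry quantifies lipid droplet accumulation (500–530 nm total intensity; droplet/cell object ratio) in oleic acid-fed (400 uM added) Drosophila S3 cells treated with a concentration series. 20 uM Triacsin C defined 100% inhibition.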
On the technique in general: qHTS replaces the single test concentration by a dilution series.

Where [1] appears, read: measured here: cell number channel AC50, cells fed with added oleic acid.
Setting [2] is: measured here: lipid fluorescence (Fed channel) AC50, cells fed with added oleic acid.

In the case of `CC(C)CN(C(=O)COC(=O)c1ccc(Cl)c(N)c1)c1c(N)n(Cc2ccccc2)c(=O)[nH]c1=O`, the cell number change is -36.9%. For the same molecule, the AC50 (commonly the concentration at which the activity in the assay is half-maximal) under setting [1] was 29.1 µM [falling, single point]. Besides, the AC50 under setting [2] is 29.1 µM [falling, single point]. For `CCCN(CCC)CCNC(=O)c1cc2c(C)nc3ccccc3c2o1`, the cell number change was -11%. Also, the AC50 under setting [2] is 0.82 µM [rising, full curve]. For `O=C(CCCC(=O)OCC(F)(F)C(F)F)Nc1nccs1`, the cell number change was -35.9%. Further, the half-maximal activity concentration (AC50) under setting [1] is 0.00461 µM [falling, full curve, poor fit]. The AC50 under setting [2] was 4.11 µM [falling, full curve]. Consider `Cc1nn(-c2ncc(C(F)(F)F)cc2Cl)c(=O)n1-c1c(F)cccc1F`, for which the cell number change is -22.3%. In addition, under setting [1], the AC50 is 1.03 µM [falling, full curve, poor fit].

As to `CCc1ccc(N2CC(C(=O)NCCC3=CCCCC3)CC2=O)cc1` (stereo not given), the cell number change is -14.7%. The AC50 under setting [2] was 23.1 µM [falling, single point]. Take `COc1ccc(NC(=O)c2ccc(CN(c3cc(Cl)ccc3C)S(=O)(=O)c3ccccc3)cc2)cc1OC`: the cell number change was found to be 54.3%. Further, the concentration at half-maximal activity (AC50) under setting [1] was 0.00461 µM [rising, full curve, poor fit]. For the molecule `CCCCOc1ccc(S(=O)(=O)NNC(=O)C2Cc3c(ccc4ccccc34)O2)cc1` (stereo not given), the cell number change was -15.2%. In addition, the AC50 under setting [2] was 0.82 µM [falling, full curve, poor fit]. For `CC(C)(C)OC(=O)CNC(=O)c1[nH]cnc1C(=O)NCCCCCNC(=O)OC(C)(C)C`, the cell number change came to 0.898%. For the same molecule, under setting [2], the AC50 is 2.31 µM [falling, partial curve]. In the case of `Cc1cc(C(=O)COC(=O)c2ccc[nH]c2=O)c(C)n1-c1ccccc1`, the cell number change came to 4.75%. Also, the AC50 under setting [1] is 0.184 µM [falling, full curve, poor fit]. For `COCc1cc(C)[nH]c(=O)c1C#N`, the cell number change was determined as 0.771%.

Turning to `CN(CC1CCCN(CCc2ccc(F)cc2)C1)C(=O)CCC(N)=O` (stereo not given), the cell number change came out at 10.6%. In the case of `Cc1ccccc1-c1nn[nH]n1`, the cell number change is 0.588%. In the case of `CCOC(=O)c1cnc(SCC(=O)Nc2ccc(NC(C)=O)c(OC)c2)nc1N`, the cell number change amounted to 2.05%. As to `S=C(NCCc1ccccc1)NCC1CCCO1` (stereo not given), the cell number change came out at 26.2%. For the same molecule, the AC50 under setting [1] was 0.058 µM [rising, full curve]. Also, under setting [2], the AC50 is 0.13 µM [rising, full curve, poor fit]. For `Cc1c2cnn(CC(=O)NCCCN3CC(C)CC(C)C3)c(=O)c2c(C)n1Cc1ccc(Cl)cc1` (stereo not given), the cell number change was 18.7%. The AC50 under setting [1] is 3.26 µM [rising, single point]. Moreover, the AC50 under setting [2] was 29.1 µM [rising, single point]. On to `CNc1sc(C(=O)c2ccccc2F)c(N)c1-c1nc2ccccc2s1`, for which the cell number change is -143%. `CCN(CC(=O)Nc1ccccc1C(F)(F)F)C(=O)CCOc1ccccc1C`: the cell number change came to 11%. For the same molecule, the AC50 under setting [2] was 29.1 µM [falling, partial curve, poor fit].

On to `N#CC1=C(N)N2C(=C(C#N)C1c1ccccc1)Sc1ccccc12` (stereo not given), for which the cell number change is 12.3%. The AC50 under setting [2] is 0.731 µM [rising, full curve, poor fit]. In the case of `COc1cc(/C=C2\SC(N)=NC2=O)cc(Br)c1O`, the cell number change worked out at 16.1%. The AC50 under setting [2] was 29.1 µM [falling, single point].

Regarding `O=C(OCC(=O)N1CCCc2ccccc21)c1cc(S(=O)(=O)N2CCOCC2)ccc1O`, the cell number change was -36.7%. Besides, the half-maximal activity concentration (AC50) under setting [1] was 29.1 µM [falling, single point]. Further, the AC50 under setting [2] was 18.4 µM [falling, single point]. `CC(C)(C)C(=O)Nc1nnc(SCC(=O)Nc2nccs2)s1`: the cell number change is -15.1%. Also, the half-maximal activity concentration (AC50) under setting [2] was 29.1 µM [falling, single point]. Turning to `COc1ccc([C@H]2CC(=O)C=C(c3cccc4c3Oc3ccccc3S4)C2)cc1OC`, the cell number change was -36.5%. Also, under setting [1], the AC50 is 25.9 µM [falling, single point]. Also, under setting [2], the AC50 was 4.61 µM [falling, single point]. Take `O=C(NC1CC1)C1=C[C@H](c2csc3ccccc23)C[C@H](OCc2ccc(CO)cc2)O1`: under setting [2], the AC50 was 0.326 µM [falling, partial curve, poor fit].

`CCOCC(=O)Nc1ccc2c(c1)N(S(=O)(=O)c1cccs1)CCC2`: the AC50 under setting [1] was 3.26 µM [rising, partial curve]. Consider `O=C(Nc1ccc2nc(-c3ccccc3)[nH]c2c1)c1cccs1`, for which the cell number change was 18.2%. Moreover, under setting [2], the AC50 was 0.517 µM [rising, partial curve, poor fit]. Consider `COC(=O)c1cc(OC)c(OC)cc1NC(=O)c1ccc(OC)cc1`, for which the cell number change is -48.1%. Besides, the AC50 under setting [1] was 29.1 µM [falling, single point]. Consider `Cc1c(OCC(=O)NCc2cccnc2)ccc2c3c(c(=O)oc12)CCCC3`, for which the cell number change was -23.8%. Under setting [1], the AC50 is 0.291 µM [falling, full curve, poor fit]. On to `COc1ccccc1N(C)S(=O)(=O)c1ccc(C)c(C(=O)NCc2ccccn2)c1`, for which the cell number change was -8.06%. Also, the AC50 under setting [2] was 0.461 µM [rising, partial curve, poor fit]. Turning to `Nc1nc(SCC(=O)N2CCCc3ccccc32)n(-c2ccccc2)n1`, the cell number change is 15.6%.

Regarding `O=C1CCC(C(=O)Nc2ccc(Cl)cc2)N1` (stereo not given), the cell number change was determined as 20.9%. Moreover, the AC50 under setting [2] was 29.1 µM [rising, single point]. On to `CC1(C)Cc2nc3oc4c(NCc5ccccc5)ncnc4c3cc2CO1`, for which the cell number change was -1.35%. Besides, under setting [2], the AC50 is 0.326 µM [falling, single point]. Take `O=C(CSCc1c(Cl)cccc1Cl)Nc1ccc2c(c1)OCCO2`: the cell number change is -5.62%. For `Cc1ccccc1-c1nnc(-c2cccs2)o1`, the cell number change was -20.8%. On to `CN(CC(=O)Nc1ccc(N2CCOCC2)cc1)CC(=O)Nc1ccc([N+](=O)[O-])cc1Br`, for which the cell number change was determined as 15.9%. Further, the AC50 under setting [1] was 0.651 µM [rising, partial curve]. Also, under setting [2], the AC50 is 0.731 µM [rising, full curve]. Consider `CCN(CC)S(=O)(=O)c1ccc2[nH]c(=O)cc(C(=O)Nc3ccc(C)c(S(=O)(=O)N(CC)CC)c3)c2c1`, for which the cell number change was -27.4%. Further, the half-maximal activity concentration (AC50) under setting [2] is 0.82 µM [falling, full curve, poor fit]. Consider `COc1cc(NC(=O)CN(c2cc(C)cc(C)c2)S(=O)(=O)c2c(C)[nH]c(=O)[nH]c2=O)cc(OC)c1`, for which the cell number change is -55.1%. Also, under setting [1], the AC50 was 29.1 µM [falling, single point]. In the case of `Cc1ccc(S(=O)(=O)/N=C2\C=C(Nc3cccc(C(=O)O)c3)C(=O)c3ccccc32)cc1`, the cell number change is -0.901%. The AC50 under setting [2] is 29.1 µM [falling, single point]. Regarding `COc1cccc(C(C(=O)NC(C)(C)C)N(CCc2ccccc2)C(=O)CCC(=O)Nc2cc(C)on2)c1OC` (stereo not given), the cell number change was 12.1%. Turning to `Cc1ccc(-c2nn(-c3ccccc3)cc2CN(Cc2ccccc2)C(=O)c2ccco2)o1`, the AC50 was 1.84 µM [rising, partial curve] under setting [1] and 0.651 µM [rising, full curve] under setting [2].

Regarding `CC(C)C1OC(c2cccc(NC(=O)c3cccs3)c2)OCC1(C)C` (stereo not given), the cell number change was -21.4%. Further, the half-maximal activity concentration (AC50) under setting [1] is 0.00461 µM [falling, full curve, poor fit]. In addition, under setting [2], the AC50 is 16.4 µM [falling, partial curve, poor fit]. On to `Cc1c(NC(=O)C(C)OC(=O)/C=C/c2ccc3c(c2)OCO3)c(=O)n(-c2ccccc2)n1C` (stereo not given), for which the cell number change is 31.6%. Turning to `COCc1nnc(N)s1`, the cell number change is -19.6%. In addition, under setting [2], the AC50 was 6.51 µM [falling, partial curve]. As for `O=C(Nc1nc2c(Br)cccc2s1)C1CC1`, the cell number change is -6.05%. Also, under setting [2], the AC50 was 0.00517 µM [falling, full curve, poor fit]. As for `COc1cccc(NC(=O)COC(=O)C2CC(=O)N(c3ccc(C)cc3)C2)c1` (stereo not given), the cell number change was -0.304%. `NS(=O)(=O)c1ccc(CNC(=O)c2ccc3ccccc3n2)cc1`: the cell number change was -23.8%. For the same molecule, under setting [2], the AC50 is 6.51 µM [falling, single point]. `CCN1C(=O)/C(=C\N2CCOCC2)SC1=S`: the cell number change was -98.7%. Besides, under setting [1], the half-maximal activity concentration (AC50) is 32.6 µM [falling, partial curve]. As to `Cc1cccnc1NC(=O)c1cccc(S(=O)(=O)N2CCCC2)c1`, the cell number change worked out at 16.9%. Also, under setting [1], the concentration at half-maximal activity (AC50) was 0.013 µM [rising, full curve, poor fit]. Moreover, the AC50 under setting [2] was 0.058 µM [rising, full curve, poor fit]. Regarding `CCOC(=O)N1CCC(N2Cc3cccc(C(=O)N4CC(C)CC(C)C4)c3C2=O)CC1` (stereo not given), the cell number change is 36.8%. In addition, the AC50 under setting [1] was 29.1 µM [rising, single point]. As to `C=C(C)CC(NCCc1ccccc1)c1ccco1` (stereo not given), the cell number change is -14.6%. The same measure, in the same setting: then `Cc1ccc(C(=O)OCC(=O)NN2C(=O)NC3(CCC(C)CC3)C2=O)cc1` (stereo not given), with -3.5%. For the molecule `O=C(O)[C@@H](c1ccccc1)N1Cc2ccccc2C1=O`, the cell number change was 14.2%. Moreover, the AC50 under setting [2] was 3.66 µM [rising, single point]. Regarding `CS(=O)(=O)Nc1ccc(C(=O)Nc2ccc3ccccc3c2)cc1`, the cell number change was determined as 68.6%. In addition, the AC50 under setting [1] was 16.4 µM [rising, partial curve, poor fit]. Under setting [2], the AC50 was 6.51 µM [rising, partial curve, poor fit]. In the case of `Nc1nonc1-n1nnc(C(=O)N/N=C/c2ccccc2Cl)c1-c1ccc2c(c1)OCO2`, the cell number change turned out to be 23.1%. The AC50 under setting [2] was 6.51 µM [falling, single point]. `Oc1ccc(Br)cc1/C=N/n1c(C2CCCCC2)n[nH]c1=S`: the cell number change was determined as 2.78%. The AC50 under setting [2] is 0.58 µM [falling, single point]. As for `O=C(NCC1CCCO1)C(=Cc1cccc([N+](=O)[O-])c1)C(=O)NCC1CCCO1` (stereo not given), the cell number change was -2.53%. For the same molecule, the concentration at half-maximal activity (AC50) under setting [2] is 18.4 µM [falling, single point].

Take `CCOC(=O)c1c(C)[nH]c(C(=O)OCC(=O)Nc2ccc(OCC)cc2)c1C`: the cell number change worked out at 46%. For the same molecule, the concentration at half-maximal activity (AC50) under setting [1] was 16.4 µM [rising, partial curve, poor fit].

Turning to `Nc1nc2nonc2nc1N`, the cell number change was -19%. For the same molecule, under setting [2], the concentration at half-maximal activity (AC50) was 0.731 µM [falling, single point]. As to `COc1ccccc1CNC(=O)c1ccc2c(c1)OCO2`, the cell number change is -33.3%.

With `Cc1cc(C)c(C#N)c(SCC(=O)N(CCC#N)c2ccc3c(c2)OCCO3)n1`, the cell number change turned out to be 11.6%. As for `C[C@H]1CN=C(Nc2ccccc2)N1CCCC1CCCCC1`, the cell number change is 8.68%. Further, the AC50 under setting [2] was 0.13 µM [falling, full curve, poor fit].

In the case of `COc1ccc(OC)c(CNC(=O)CCc2cn(C)c3ccccc23)c1`, the cell number change was -6.38%. In addition, the concentration at half-maximal activity (AC50) under setting [2] is 25.9 µM [falling, single point].
